Source: PMC11792579
No constants are given. Whether binding was seen depends on the method and setting. In cells and extracts the contact can be indirect. Some results given as binding are weak or reduced against the parent protein; the word gives no strength.

Chains of the proteins cited; added tags and fusions are not shown.
UniProt O95071: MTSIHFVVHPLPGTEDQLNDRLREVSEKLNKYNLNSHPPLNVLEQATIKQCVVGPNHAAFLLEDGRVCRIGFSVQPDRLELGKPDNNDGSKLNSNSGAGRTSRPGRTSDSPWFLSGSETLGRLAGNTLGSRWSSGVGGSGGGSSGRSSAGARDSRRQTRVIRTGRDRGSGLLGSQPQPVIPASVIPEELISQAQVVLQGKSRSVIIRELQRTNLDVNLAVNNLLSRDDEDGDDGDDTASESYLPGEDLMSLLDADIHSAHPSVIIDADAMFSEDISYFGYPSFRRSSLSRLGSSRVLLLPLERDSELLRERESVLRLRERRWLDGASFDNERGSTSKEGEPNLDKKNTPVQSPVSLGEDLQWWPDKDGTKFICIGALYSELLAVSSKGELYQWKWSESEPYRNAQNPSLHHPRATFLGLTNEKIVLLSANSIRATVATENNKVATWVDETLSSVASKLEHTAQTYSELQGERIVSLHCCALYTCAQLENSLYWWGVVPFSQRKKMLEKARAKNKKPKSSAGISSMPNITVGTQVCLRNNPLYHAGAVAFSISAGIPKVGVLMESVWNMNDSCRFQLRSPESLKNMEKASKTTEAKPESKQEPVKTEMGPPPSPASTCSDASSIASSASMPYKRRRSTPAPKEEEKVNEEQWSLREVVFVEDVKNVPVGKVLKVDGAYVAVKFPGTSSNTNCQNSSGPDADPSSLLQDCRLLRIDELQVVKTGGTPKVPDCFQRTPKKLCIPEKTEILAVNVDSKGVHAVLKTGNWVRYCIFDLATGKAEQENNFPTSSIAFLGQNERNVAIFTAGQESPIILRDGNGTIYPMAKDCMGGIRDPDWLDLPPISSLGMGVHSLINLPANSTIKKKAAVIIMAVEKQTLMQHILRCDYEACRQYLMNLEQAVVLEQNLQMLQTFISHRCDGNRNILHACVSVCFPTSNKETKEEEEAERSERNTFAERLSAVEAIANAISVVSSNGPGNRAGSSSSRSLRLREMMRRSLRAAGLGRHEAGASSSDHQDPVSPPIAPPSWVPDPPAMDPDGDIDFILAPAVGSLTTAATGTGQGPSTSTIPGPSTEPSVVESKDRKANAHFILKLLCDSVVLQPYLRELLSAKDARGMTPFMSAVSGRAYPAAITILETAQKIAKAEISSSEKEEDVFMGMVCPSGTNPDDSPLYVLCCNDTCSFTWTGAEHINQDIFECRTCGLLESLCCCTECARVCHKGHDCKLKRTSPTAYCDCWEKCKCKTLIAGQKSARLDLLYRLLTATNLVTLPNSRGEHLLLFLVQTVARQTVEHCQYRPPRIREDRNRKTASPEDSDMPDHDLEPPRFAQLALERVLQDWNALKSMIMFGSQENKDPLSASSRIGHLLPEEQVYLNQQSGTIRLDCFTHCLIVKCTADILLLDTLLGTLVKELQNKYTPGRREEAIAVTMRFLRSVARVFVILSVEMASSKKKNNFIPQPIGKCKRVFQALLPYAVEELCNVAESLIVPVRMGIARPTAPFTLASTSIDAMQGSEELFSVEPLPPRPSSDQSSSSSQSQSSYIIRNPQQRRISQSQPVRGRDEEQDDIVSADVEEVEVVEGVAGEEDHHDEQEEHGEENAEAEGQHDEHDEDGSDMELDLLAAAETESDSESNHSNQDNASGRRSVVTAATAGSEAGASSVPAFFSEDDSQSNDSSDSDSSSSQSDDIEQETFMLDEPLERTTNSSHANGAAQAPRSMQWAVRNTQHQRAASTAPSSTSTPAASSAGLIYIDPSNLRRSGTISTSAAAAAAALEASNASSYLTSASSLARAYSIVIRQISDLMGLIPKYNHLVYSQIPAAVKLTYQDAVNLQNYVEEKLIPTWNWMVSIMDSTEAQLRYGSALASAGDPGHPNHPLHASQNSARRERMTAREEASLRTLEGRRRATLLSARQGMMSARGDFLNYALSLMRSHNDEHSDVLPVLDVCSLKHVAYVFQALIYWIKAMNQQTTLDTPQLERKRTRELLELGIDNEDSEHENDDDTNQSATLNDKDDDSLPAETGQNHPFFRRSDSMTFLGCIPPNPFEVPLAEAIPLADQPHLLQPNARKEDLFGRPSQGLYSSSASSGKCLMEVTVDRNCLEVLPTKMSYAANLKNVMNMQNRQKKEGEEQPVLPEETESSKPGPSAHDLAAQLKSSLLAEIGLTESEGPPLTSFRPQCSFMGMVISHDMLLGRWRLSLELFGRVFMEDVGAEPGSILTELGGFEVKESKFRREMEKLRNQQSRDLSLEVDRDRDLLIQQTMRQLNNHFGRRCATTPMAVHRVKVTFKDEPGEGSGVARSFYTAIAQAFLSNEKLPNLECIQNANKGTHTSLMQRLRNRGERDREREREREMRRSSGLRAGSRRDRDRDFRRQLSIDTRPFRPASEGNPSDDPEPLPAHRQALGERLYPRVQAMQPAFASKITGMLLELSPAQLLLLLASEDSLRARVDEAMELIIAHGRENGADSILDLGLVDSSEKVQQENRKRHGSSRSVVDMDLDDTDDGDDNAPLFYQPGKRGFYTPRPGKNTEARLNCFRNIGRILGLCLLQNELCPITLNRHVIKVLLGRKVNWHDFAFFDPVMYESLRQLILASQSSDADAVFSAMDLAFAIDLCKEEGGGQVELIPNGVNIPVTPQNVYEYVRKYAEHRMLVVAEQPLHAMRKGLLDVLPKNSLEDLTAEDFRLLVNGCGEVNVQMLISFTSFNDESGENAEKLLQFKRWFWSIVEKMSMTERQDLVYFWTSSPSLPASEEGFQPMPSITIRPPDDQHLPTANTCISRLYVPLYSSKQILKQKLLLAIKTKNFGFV

Target: T1, N-acetyltransferase 10 (NAT10), endogenous (human (endogenous in SW620)) (UniProt Q9H0A0)
T1 sequence: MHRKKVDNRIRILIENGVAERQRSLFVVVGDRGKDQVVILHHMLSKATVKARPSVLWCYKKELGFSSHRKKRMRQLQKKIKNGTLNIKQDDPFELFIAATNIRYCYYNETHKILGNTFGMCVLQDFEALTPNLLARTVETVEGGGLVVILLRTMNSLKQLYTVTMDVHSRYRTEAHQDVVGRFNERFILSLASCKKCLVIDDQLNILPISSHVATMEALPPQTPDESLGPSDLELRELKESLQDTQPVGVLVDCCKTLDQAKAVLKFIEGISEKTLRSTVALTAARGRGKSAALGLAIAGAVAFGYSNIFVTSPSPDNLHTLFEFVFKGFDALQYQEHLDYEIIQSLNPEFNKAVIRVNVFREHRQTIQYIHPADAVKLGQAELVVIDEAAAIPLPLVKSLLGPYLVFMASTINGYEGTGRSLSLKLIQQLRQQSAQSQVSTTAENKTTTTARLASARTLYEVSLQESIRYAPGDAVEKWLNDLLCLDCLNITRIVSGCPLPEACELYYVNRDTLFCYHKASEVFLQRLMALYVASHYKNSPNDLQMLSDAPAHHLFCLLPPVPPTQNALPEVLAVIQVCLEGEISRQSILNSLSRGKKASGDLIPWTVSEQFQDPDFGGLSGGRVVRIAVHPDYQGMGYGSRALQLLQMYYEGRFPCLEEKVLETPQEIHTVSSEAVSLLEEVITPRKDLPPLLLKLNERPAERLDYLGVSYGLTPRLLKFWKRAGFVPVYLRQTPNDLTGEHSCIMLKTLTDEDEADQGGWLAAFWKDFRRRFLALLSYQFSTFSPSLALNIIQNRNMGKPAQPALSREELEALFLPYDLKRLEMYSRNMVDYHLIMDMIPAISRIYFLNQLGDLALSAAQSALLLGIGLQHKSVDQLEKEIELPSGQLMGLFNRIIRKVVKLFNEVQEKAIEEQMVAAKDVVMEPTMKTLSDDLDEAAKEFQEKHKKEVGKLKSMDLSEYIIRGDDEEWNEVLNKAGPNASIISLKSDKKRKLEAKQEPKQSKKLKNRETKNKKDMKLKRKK
Assay: co-IP; endogenous proteins, cell lysate, Abcam Immunoprecipitation Kit, Protein A/G Sepharose beads, overnight at 4 °C; cells with or without 5-Fu

**Q.** Which binding does the source give for “Ubiquitin protein ligase E3 component n-recognin 5 (UBR5), endogenous (from UniProt O95071 1-2799)” here?
**A.** binds
